Some of the results follow. Further columns of the screen follow, without active or inactive calls. The list favours compounds with an active or inconclusive main result. The note in brackets gives the kind of curve behind each potency; many fits are weak.
Test: qHTS Assay to Find Inhibitors of Chronic Active B-Cell Receptor Signaling
Conditions: ABC-DLBCL IkBa-CBG/CBR reporter, luminescence ratio (green luciferase fused to IkBa over red control in TMD8 lymphoma cells), 4 h
In short: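 TMD8 ABC-DLBCL cells carrying doxycycline-inducible green luciferase fused to IkappaBalpha plus unfused red luciferase were exposed to compounds (up to 46 uM) for 4 hrs at 37C. Activity came from the overlap-corrected green/red luminescence ratio.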

[1] = measured here: CBR red luminescence, cell number
[2] = measured here: IkBa-CBG green luminescence

| Structure (SMILES) | AC50 [1] | AC50 [2] |
| --- | --- | --- |
| N/C(=N\OC(=O)c1ccccc1F)c1ccc([N+](=O)[O-])cc1 | 0.562 µM [rising, full curve, poor fit] | – |
| O=C(CSc1nnc2n(C3CCCC3)c(=O)c3ccccc3n12)N1CCCCCC1 | 16.4 µM [falling, single point] | – |
| CNC(=S)N/N=C(\C)c1ccc(N2CCOCC2)cc1 | 0.92 µM [falling, full curve] | 23.1 µM [falling, single point] |
| Cc1nn(-c2ccc(C(=O)O)cc2)c(N)c1-c1ccccc1 | 2 µM [falling, full curve] | – |
| CCCc1cc(=O)n2[nH]c(-c3ccccc3)cc2n1 | 7.31 µM [falling, partial curve, poor fit] | – |
| O=C(OCc1nc2ccccc2s1)[C@@H]1CCCN1S(=O)(=O)c1ccccc1F | 0.651 µM [rising, partial curve, poor fit] | – |
| Cc1ccc(C)c(OCC(=O)N2CCc3ccccc3C2)c1 | 8.91 µM [falling, partial curve] | – |
| N#C/C(=C\c1cccs1)C(=O)NCc1ccccc1 | 4.11 µM [rising, partial curve, poor fit] | – |
| Cc1cc(=O)oc(C)c1C(=O)NCc1ccco1 | 3.16 µM [falling, single point] | – |
| CCOc1ccc(N)c(SSc2cc(OCC)ccc2N)c1 | 14.1 µM [falling, partial curve, poor fit] | 17.8 µM [falling, single point] |
| CCn1c(SCc2ccc(F)cc2)nc2c(c1=O)SCC2 | 35.5 µM [falling, single point] | – |
| C=CCNC(=O)C(C)N1C(=O)c2ccccc2C1=O (centres undefined) | 29.1 µM [rising, single point] | – |
| O=C(O)c1cccc(NC2=C(N3CCOCC3)C(=O)c3ccccc3C2=O)c1 | 17.8 µM [falling, single point] | – |
| COc1ccccc1/C=C/C=C1\Oc2c(ccc(O)c2CN2CCN(CCO)CC2)C1=O | 20.6 µM [falling, partial curve] | – |
| Cc1cccc2cn[nH]c12 | 0.398 µM [falling, full curve, poor fit] | – |
| O=C(Nc1ccc(Oc2ccc(NC(=O)c3ccco3)c(NC(=O)c3ccco3)c2)cc1)c1ccco1 | 3.26 µM [rising, full curve, poor fit] | – |
| CC(C)(C)C1CCc2c(sc(N)c2C(N)=O)C1 (centres undefined) | 35.5 µM [falling, single point] | – |
| CCOc1ccc(C(=O)NC(=S)Nc2ccccc2OC)cc1[N+](=O)[O-] | 23.1 µM [rising, partial curve] | – |
| CCOC(=O)CSc1nnc(-c2ccccc2)c(=O)[nH]1 | 32.6 µM [falling, partial curve, poor fit] | – |
| CC(Oc1ccc(F)cc1)C(=O)Nc1cc(C(F)(F)F)ccc1-n1cncn1 (centres undefined) | 7.31 µM [rising, partial curve] | – |
| CCOC(=O)CSc1nc(C)cc(C)c1C#N | 4.11 µM [rising, full curve] | – |

Rewritten tab-delimited: entries from further up.
Structure (SMILES)	AC50 [1]	AC50 [2]
CCOC(=O)CSc1nnc(-c2ccccc2)c(=O)[nH]1	32.6 µM [falling, partial curve, poor fit]	–
CC(Oc1ccc(F)cc1)C(=O)Nc1cc(C(F)(F)F)ccc1-n1cncn1 (centres undefined)	7.31 µM [rising, partial curve]	–

The list goes on.

| Structure (SMILES) | AC50 [1] | AC50 [2] |
| --- | --- | --- |
| CN(c1ccccc1)S(=O)(=O)c1ccc(C(=O)OCC(=O)N2CCOCC2)cc1 | 0.092 µM [falling, full curve, poor fit] | – |
| COc1ccc(C(=S)Nc2ccc(N(C)C)cc2)cc1 | 29.1 µM [rising, single point] | – |
| CC1CCCCC1n1c(=S)[nH]c2ccccc2c1=O (centres undefined) | 1.58 µM [rising, full curve] | 10 µM [falling, partial curve, poor fit] |
| COc1ccc(C(=O)C2CCCN(C3Cc4ccccc4C3)C2)c(OC)c1 (centres undefined) | 0.562 µM [rising, full curve, poor fit] | – |
| Cn1c(C=O)c(-c2ccc3c(c2)OCCO3)c2ccccc21 | 7.31 µM [rising, partial curve] | – |
| Cn1c(Cn2c(=O)sc3ccccc32)nnc1SCc1ccccc1F | 6.51 µM [falling, single point] | – |
| Nc1nc(Cl)nc2c1ncn2[C@H]1C[C@H](O)[C@@H](CO)O1 | 8.2 µM [rising, partial curve] | – |
| Cc1cccc(NC(=O)Nc2ccc(Cl)cc2)n1 | 0.112 µM [rising, full curve] | – |
| Cc1ccc(/C=C/S(=O)(=O)NCC(=O)OCC(=O)Nc2c(F)cccc2F)cc1 | 25.9 µM [falling, single point] | – |
| S=C(Nc1ccccc1)Nc1cccc(Cl)c1Cl | 35.5 µM [rising, single point] | – |
| Cc1nc2ncccn2c1-c1csc(Nc2ccc(O)cc2)n1 | 1.78 µM [rising, partial curve] | – |
| CCNC(=O)c1ccccc1NC(=O)c1cccc(S(=O)(=O)N2CCC(C)CC2)c1 | 2.06 µM [rising, partial curve, poor fit] | – |
| CC(C)C(NC(=O)c1ccc(C(C)(C)C)cc1)C(=O)OCC(=O)NC(=O)Cc1ccccc1 (centres undefined) | 29.1 µM [falling, single point] | – |
| COc1ccc(C(=O)NN2C(=S)N(c3ccc(OC)cc3)C(=O)C2CC(N)=O)cc1 (centres undefined) | 35.5 µM [rising, single point] | – |
| COc1cc(NC(=O)CCc2ccccc2)c(C(=O)O)cc1OC | 17.8 µM [falling, single point] | – |
| C=CCNC(=O)c1onc(CSc2cccc(OCC)c2)c1C(=O)O | 22.4 µM [falling, single point] | – |
| C#CCNC(=O)C1=C[C@H](C2CCCCC2)C[C@H](OCCCCO)O1 | 3.55 µM [rising, full curve, poor fit] | – |
| O=C(NCc1ccco1)Nc1cccc([N+](=O)[O-])c1 | 5.62 µM [rising, full curve, poor fit] | – |
| Cc1ccc(NC(=O)C2=CCN(S(=O)(=O)c3ccc(F)cc3)CC2)cc1 | 16.4 µM [rising, partial curve, poor fit] | – |
| Cc1ccc(-c2cc(C(=O)OCC(=O)N(C)C3CCS(=O)(=O)C3)c3ccccc3n2)c(C)c1 (centres undefined) | 35.5 µM [falling, single point] | – |

— PubChem BioAssay AID493014 (National Center for Advancing Translational Sciences (NCATS), 2011)
